{
  "source": "paper PMC8264304",
  "molecules": {"B1": {"name": "MexR of P. aeruginosa clinical isolate CSP18 (protein, UniProt P52003 1-147)", "chain": "MNYPVNPDLMPALMAVFQHVRTRIQSELDCQRLDLTPPDVHVLKLIDEQRGLNLQDLGRQMCRDKALITRKIRELEGRNLVRRERNPSDQRSFQLFLTDEGLAIHQHAEAIMSRVHDELFAPLTPVEQATLVHLLDQCLAAQPLEDI"}},
  "key": {"[1]": {"target": "MexR (R70Q) of P. aeruginosa clinical isolate ARP36 (Pseudomonas aeruginosa (clinical isolate ARP36)) (UniProt P52003)", "experiment": "two-hybrid; bacterial two-hybrid system (Stratagene); mexR genes cloned into both pTRG (prey) and pBT (bait); interaction assessed by beta-galactosidase activity in the reporter strains"}, "[2]": {"target": "MexR of P. aeruginosa clinical isolate CSP18 (Pseudomonas aeruginosa (clinical isolate CSP18)) (UniProt P52003)", "experiment": "two-hybrid; bacterial two-hybrid system (Stratagene); mexR genes cloned into both pTRG (prey) and pBT (bait); interaction assessed by beta-galactosidase activity in the reporter strains"}},
  "note": "No constants are given. Whether binding was seen depends on the method and setting. Some results given as binding are weak or reduced against the parent protein; the word gives no strength.",
  "data": [
    {"molecule": "MexR (R70Q) of P. aeruginosa clinical isolate ARP36 (from UniProt P52003 1-147)", "values": [
      {"measurement": "binding", "setting": "[1]", "value": "binds"}
    ]},
    {"molecule": "B1", "values": [
      {"measurement": "binding", "setting": "[1]", "value": "binds"},
      {"measurement": "binding", "setting": "[2]", "value": "binds"}
    ]}
  ]
}
